For 1 molecule, binding results are on record in PMC4691244.

For test [1], the target named is T1, FLAG-DGCR8 (human), Q8WYQ5.
T1 chain: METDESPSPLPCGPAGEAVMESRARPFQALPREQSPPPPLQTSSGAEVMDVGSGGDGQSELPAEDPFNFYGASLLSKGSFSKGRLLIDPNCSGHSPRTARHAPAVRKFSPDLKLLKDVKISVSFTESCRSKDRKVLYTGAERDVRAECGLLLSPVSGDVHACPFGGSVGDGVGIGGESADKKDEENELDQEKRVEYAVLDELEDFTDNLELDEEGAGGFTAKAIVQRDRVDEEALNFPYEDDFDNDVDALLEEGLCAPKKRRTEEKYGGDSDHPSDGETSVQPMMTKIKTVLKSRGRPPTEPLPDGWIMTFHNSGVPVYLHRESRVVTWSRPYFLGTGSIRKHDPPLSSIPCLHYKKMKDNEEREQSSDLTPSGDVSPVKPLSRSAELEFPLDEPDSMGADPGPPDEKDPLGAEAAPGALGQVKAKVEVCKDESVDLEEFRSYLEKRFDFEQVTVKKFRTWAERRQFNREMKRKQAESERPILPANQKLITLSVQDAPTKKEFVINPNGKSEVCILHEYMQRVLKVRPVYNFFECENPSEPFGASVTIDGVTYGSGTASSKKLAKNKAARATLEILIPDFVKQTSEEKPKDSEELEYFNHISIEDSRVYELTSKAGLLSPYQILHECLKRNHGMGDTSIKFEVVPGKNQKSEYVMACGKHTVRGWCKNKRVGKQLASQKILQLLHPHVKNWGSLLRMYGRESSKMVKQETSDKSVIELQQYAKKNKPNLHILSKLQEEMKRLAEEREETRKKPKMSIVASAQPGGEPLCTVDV
Description: co-IP; anti-T7 or anti-FLAG immunoprecipitation of overexpressed T7-DGCR8, FLAG-DGCR8, FLAG-Drosha (and T7-DGCR8 dRBD1&2 mut) from transfected HEK293T cells; western blot of endogenous partners; in the presence or absence of RNase A (Figure 1C). Conditions: remark: other sources report otherwise.

For a further test, the target named is T2, T7-DGCR8 (human), Q8WYQ5.
T2 chain: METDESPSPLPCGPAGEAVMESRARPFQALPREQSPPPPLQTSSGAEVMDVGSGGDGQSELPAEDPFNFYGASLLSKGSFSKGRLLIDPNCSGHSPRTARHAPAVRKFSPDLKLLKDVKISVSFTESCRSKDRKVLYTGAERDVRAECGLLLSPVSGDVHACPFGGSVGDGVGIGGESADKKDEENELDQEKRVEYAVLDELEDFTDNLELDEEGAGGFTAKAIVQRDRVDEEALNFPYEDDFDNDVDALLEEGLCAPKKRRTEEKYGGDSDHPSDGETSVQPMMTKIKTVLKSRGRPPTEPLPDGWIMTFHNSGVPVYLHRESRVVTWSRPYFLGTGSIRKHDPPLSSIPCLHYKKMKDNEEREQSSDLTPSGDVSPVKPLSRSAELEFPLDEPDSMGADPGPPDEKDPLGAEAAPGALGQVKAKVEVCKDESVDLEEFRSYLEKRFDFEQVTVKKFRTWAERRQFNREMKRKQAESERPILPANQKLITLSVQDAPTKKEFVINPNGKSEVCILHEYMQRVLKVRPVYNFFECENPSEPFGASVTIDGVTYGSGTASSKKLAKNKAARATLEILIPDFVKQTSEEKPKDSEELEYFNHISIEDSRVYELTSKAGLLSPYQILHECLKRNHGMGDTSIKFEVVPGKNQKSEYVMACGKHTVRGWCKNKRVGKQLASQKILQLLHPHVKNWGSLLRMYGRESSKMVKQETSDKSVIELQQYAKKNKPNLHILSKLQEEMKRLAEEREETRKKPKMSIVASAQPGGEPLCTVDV
Described as above. Conditions: remark: other sources report otherwise.

Results are given in words; binding and its absence hold for the method and conditions named. In cells and extracts the contact can be indirect. For some assays here: Tags and fused reporters may be left off the sequences shown.

B1: hDIS3, Q9Y2L1 1-958 (enzyme)
chain: MLKSKTFLKKTRAGGVMKIVREHYLRDDIGCGAPGCAACGGAHEGPALEPQPQDPASSVCPQPHYLLPDTNVLLHQIDVLEDPAIRNVIVLQTVLQEVRNRSAPVYKRIRDVTNNQEKHFYTFTNEHHRETYVEQEQGENANDRNDRAIRVAAKWYNEHLKKMSADNQLQVIFITNDRRNKEKAIEEGIPAFTCEEYVKSLTANPELIDRLACLSEEGNEIESGKIIFSEHLPLSKLQQGIKSGTYLQGTFRASRENYLEATVWIHGDNEENKEIILQGLKHLNRAVHEDIVAVELLPKSQWVAPSSVVLHDEGQNEEDVEKEEETERMLKTAVSEKMLKPTGRVVGIIKRNWRPYCGMLSKSDIKESRRHLFTPADKRIPRIRIETRQASTLEGRRIIVAIDGWPRNSRYPNGHFVRNLGDVGEKETETEVLLLEHDVPHQPFSQAVLSFLPKMPWSITEKDMKNREDLRHLCICSVDPPGCTDIDDALHCRELENGNLEVGVHIADVSHFIRPGNALDQESARRGTTVYLCEKRIDMVPELLSSNLCSLKCDVDRLAFSCIWEMNHNAEILKTKFTKSVINSKASLTYAEAQLRIDSANMNDDITTSLRGLNKLAKILKKRRIEKGALTLSSPEVRFHMDSETHDPIDLQTKELRETNSMVEEFMLLANISVAKKIHEEFSEHALLRKHPAPPPSNYEILVKAARSRNLEIKTDTAKSLAESLDQAESPTFPYLNTLLRILATRCMMQAVYFCSGMDNDFHHYGLASPIYTHFTSPIRRYADVIVHRLLAVAIGADCTYPELTDKHKLADICKNLNFRHKMAQYAQRASVAFHTQLFFKSKGIVSEEAYILFVRKNAIVVLIPKYGLEGTVFFEEKDKPNPQLIYDDEIPSLKIEDTVFHVFDKVKVKIMLDSSNLQHQKIRMSLVEPQIPGISIPTDTSNMDLNGPKKKKMKLGK
As for B1, the binding result in test [1] was “no binding”; with T7-DGCR8 (human), Q8WYQ5, “no binding”.
